{"source": "paper PMC7819943", "about": "“Rice protein-binding microarrays: a tool to detect cis-acting elements near promoter regions in rice”", "note": "The other results are listed elsewhere or left out."}
{"target": "T1, OsSMF1 (Oryza sativa, UniProt Q6ZLB0 1-436)", "T1 sequence": "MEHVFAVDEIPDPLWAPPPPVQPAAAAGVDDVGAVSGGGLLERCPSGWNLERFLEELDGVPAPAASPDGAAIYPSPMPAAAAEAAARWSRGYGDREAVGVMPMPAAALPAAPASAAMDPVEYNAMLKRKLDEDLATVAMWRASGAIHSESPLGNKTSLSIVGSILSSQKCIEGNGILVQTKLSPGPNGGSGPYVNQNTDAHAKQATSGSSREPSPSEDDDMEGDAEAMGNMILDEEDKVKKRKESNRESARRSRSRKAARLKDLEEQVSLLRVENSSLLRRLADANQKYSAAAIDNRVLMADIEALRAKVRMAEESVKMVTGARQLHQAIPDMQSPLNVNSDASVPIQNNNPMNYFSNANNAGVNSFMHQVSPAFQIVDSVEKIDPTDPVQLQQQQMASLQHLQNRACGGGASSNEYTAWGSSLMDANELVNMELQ", "test": "protein-binding microarray (RPBM); PBS, 2% BSA, 51.3 ng/ul salmon testes DNA, 50 uM zinc acetate, 200 nM TF, 25 C, 1 h; high values mean tight binding", "conditions": "protein: recombinant; tags: N-terminal polyhistidine and DsRed monomer fusion (pET32a); chain copies: 2; label: CyDye5-dUTP incorporated in the synthesized complementary strand; 3' TTTTT single-stranded linker to array surface; dsDNA, one strand shown", "outline": "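Transcription factors, each fused N-terminally to a polyhistidine tag and DsRed, were expressed in E. coli BL21-CodonPlus and purified on Ni–NTA. A custom Agilent array was made double-stranded by primer extension with Cy5-dUTP and blocked with 2% BSA. It was incubated with 200 nM protein in PBS, 2% BSA, salmon testes DNA and 50 µM zinc acetate at 25 °C for 1 h, then washed. The binding signal is per-feature fluorescence intensity (arbitrary units) read on an Axon 4000B scanner.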"}
{"sequence": "TATGGCTGACGTGGCTCCTACGTGGCTCCTTTGACTAGGTCGGAGTCACCTAGTGCAG", "binding signal": "33800 fluorescence intensity (a.u.)"}
{"sequence": "GCCGCACGCTAGGCCCCGCGCGTACACGTACGCGCGCTGCCGGAGTCACCTAGTGCAG", "binding signal": "6780 fluorescence intensity (a.u.)"}
{"sequence": "ATAAATACCAGCTTTCCAACCATCACTTATTCACTTGCCCCGGAGTCACCTAGTGCAG", "binding signal": "3740 fluorescence intensity (a.u.)"}
{"sequence": "CCGTTGGATCGCAATCCATCACGCACATCCCTCCGCCACCCGGAGTCACCTAGTGCAG", "binding signal": "24700 fluorescence intensity (a.u.)"}
{"sequence": "ACGAAGCCACACTGTTCATTCATCACGTCCCCAACTCTGCCGGAGTCACCTAGTGCAG", "binding signal": "25400 fluorescence intensity (a.u.)"}
{"sequence": "CTCATCCACCCATCCTCATCCTTATCCTCACTCTCTCCTCCGGAGTCACCTAGTGCAG", "binding signal": "4200 fluorescence intensity (a.u.)"}
{"sequence": "GCAAAGGCTTGACAGATGTGAGTCCTAACTCAAACTATTGCGGAGTCACCTAGTGCAG", "binding signal": "3540 fluorescence intensity (a.u.)"}
{"sequence": "AATCAATCCATTAATATTTAACATGATCAGGCATTAGTCGCGGAGTCACCTAGTGCAG", "binding signal": "3580 fluorescence intensity (a.u.)"}
{"sequence": "CACCTGCATGACGACTTAAATGTTTATGGTGATATCTTCTCGGAGTCACCTAGTGCAG", "binding signal": "3520 fluorescence intensity (a.u.)"}
{"sequence": "TGAAGAATTGGAGTTGTACACTTGATAGTATAGTGGAAAGCGGAGTCACCTAGTGCAG", "binding signal": "19000 fluorescence intensity (a.u.)"}
{"sequence": "ACATCGAGATGCATATCTTTGATACGTCATGCGCACTGATCGGAGTCACCTAGTGCAG", "binding signal": "5930 fluorescence intensity (a.u.)"}
{"sequence": "CTGAACCATCCGACTCACCACCGGTATTTCTCGGCCATCTCGGAGTCACCTAGTGCAG", "binding signal": "3950 fluorescence intensity (a.u.)"}
{"sequence": "TCAAGGGAGAGGCGAGAGACATATAAATAAGGGTGCTCCGCGGAGTCACCTAGTGCAG", "binding signal": "3160 fluorescence intensity (a.u.)"}
{"sequence": "ATCTAAATATTTATAAATCTATTGAAGTTTAATTTTCTTTCGGAGTCACCTAGTGCAG", "binding signal": "4810 fluorescence intensity (a.u.)"}
{"sequence": "CTACTGGTAGATGATAGGTCAGGCAATGAATTGTAGATTGCGGAGTCACCTAGTGCAG", "binding signal": "3550 fluorescence intensity (a.u.)"}
{"sequence": "GGCGACACCGCCACCGCCGCCGTCTCAGTCAGCGACCGTGCGGAGTCACCTAGTGCAG", "binding signal": "3170 fluorescence intensity (a.u.)"}
{"sequence": "GCGCAGAGATCGTGTACAACTGTGCACATGTATGGTGTTTCGGAGTCACCTAGTGCAG", "binding signal": "3510 fluorescence intensity (a.u.)"}
{"sequence": "AAGTCACATAAATTGCTTTACATGGTCTCAATGATAAGTACGGAGTCACCTAGTGCAG", "binding signal": "21100 fluorescence intensity (a.u.)"}
{"sequence": "ATGCACGCGAGCACGTCGGCACACATCATGATCATCTAGCCGGAGTCACCTAGTGCAG", "binding signal": "3850 fluorescence intensity (a.u.)"}
{"sequence": "GTAACCAGTTCGGGTCATTTAGCAACAGCTCCTTTGAAGGCGGAGTCACCTAGTGCAG", "binding signal": "3570 fluorescence intensity (a.u.)"}
{"sequence": "GCGTTATTGTACTAACGCGCGACGGAGCAAGAAAACGTATCGGAGTCACCTAGTGCAG", "binding signal": "4110 fluorescence intensity (a.u.)"}
{"sequence": "GTCTTCTTCCTCCTCCTGTCCTGGATCTCACAGGGTGGCACGGAGTCACCTAGTGCAG", "binding signal": "3190 fluorescence intensity (a.u.)"}
{"sequence": "CAATATCGTGCGTGCGTTCTTAGTGTTTGGGCTAACAAAACGGAGTCACCTAGTGCAG", "binding signal": "4940 fluorescence intensity (a.u.)"}
{"sequence": "CAATTTTAGCAAATGTTCCTGCTCCGTGATTTGGCGGCATCGGAGTCACCTAGTGCAG", "binding signal": "19200 fluorescence intensity (a.u.)"}
{"sequence": "GGTGGATTATGACTCTACGCTGACAATGACATCAACCTGCCGGAGTCACCTAGTGCAG", "binding signal": "9370 fluorescence intensity (a.u.)"}
{"sequence": "CTGAGTGCGTCTTCAAGACGTTAGAATGCTGACATGCTTGCGGAGTCACCTAGTGCAG", "binding signal": "4300 fluorescence intensity (a.u.)"}
{"sequence": "AGGGGATGGGATCACCGCGATGCAAAATTAACTCAAATATCGGAGTCACCTAGTGCAG", "binding signal": "19400 fluorescence intensity (a.u.)"}
{"sequence": "GCAATGGCGTCATGCTATGCTTGCAGTTGCAGGCTGATTTCGGAGTCACCTAGTGCAG", "binding signal": "4280 fluorescence intensity (a.u.)"}
{"sequence": "GTCTGCAACCAACTTGATTACACCAAACGACTTATATTTGCGGAGTCACCTAGTGCAG", "binding signal": "15900 fluorescence intensity (a.u.)"}
{"sequence": "TGCGGATACAGTCACTACTACTTACGCGCCTTCGACATGTCGGAGTCACCTAGTGCAG", "binding signal": "3870 fluorescence intensity (a.u.)"}
{"sequence": "GCGACCCAAATGACGTCCACGTGTAAATATCTTCGCTCCGCGGAGTCACCTAGTGCAG", "binding signal": "12700 fluorescence intensity (a.u.)"}
{"sequence": "TTCCGTGCCTCGACCTCGCCCAGCGCCTGGCGTGTGGCCACGGAGTCACCTAGTGCAG", "binding signal": "3450 fluorescence intensity (a.u.)"}
{"sequence": "GTTACTTGCGTGTGGTGCCACGGTGACAGTCAGCCGCGGTCGGAGTCACCTAGTGCAG", "binding signal": "7450 fluorescence intensity (a.u.)"}
{"sequence": "AATAATTTTGGAATGGCACCGAATTACCCTCTCCACCTCGCGGAGTCACCTAGTGCAG", "binding signal": "3160 fluorescence intensity (a.u.)"}
{"sequence": "GGGGATTAGAGGGGAGAGAGGTTGTCTCTTTGAGATTCGTCGGAGTCACCTAGTGCAG", "binding signal": "3250 fluorescence intensity (a.u.)"}
{"sequence": "AAATACGGAGAGAAGAAGGCTCACTAAGCGCGCTTACTATCGGAGTCACCTAGTGCAG", "binding signal": "42500 fluorescence intensity (a.u.)"}
{"sequence": "CAGCGTGACACGGTGGACGGGATGACGGCTATGGTTGCAGCGGAGTCACCTAGTGCAG", "binding signal": "5720 fluorescence intensity (a.u.)"}
{"sequence": "AACCGCACTGTGAATTTCTGACTAAATCAGAACTGTCATTCGGAGTCACCTAGTGCAG", "binding signal": "3830 fluorescence intensity (a.u.)"}
{"sequence": "TGAGAGGTCTACATCATTACATGTCAAGACAAGACTACCACGGAGTCACCTAGTGCAG", "binding signal": "4540 fluorescence intensity (a.u.)"}
{"sequence": "ACTAATAGTGTTTCTTCATGACCTACCACTTCTTTATACGCGGAGTCACCTAGTGCAG", "binding signal": "3620 fluorescence intensity (a.u.)"}
{"sequence": "CCCCGCGACTCCGCGACGCCGACGCGATCCACGGTTCCCCCGGAGTCACCTAGTGCAG", "binding signal": "3280 fluorescence intensity (a.u.)"}
{"sequence": "ATGCTGACACGTGGGTCTCACGCTGACTCAACCACCGATGCGGAGTCACCTAGTGCAG", "binding signal": "15000 fluorescence intensity (a.u.)"}
